US20100016293A1, “Quinazolines and Related Heterocyclic Compounds, and Their Therapeutic Use” (priority 2006, published 2010)
Some entries share one result that the patent states for a list of compounds. At least one structure is not confirmed: it was looked up by name or label, or the drawing left a doubt.

Sequences of proteins named here, by UniProt entry; tags and fusion partners are left off. A change or cut given only in a name is not applied to a line headed by its entry.
UniProt Q9H3N8: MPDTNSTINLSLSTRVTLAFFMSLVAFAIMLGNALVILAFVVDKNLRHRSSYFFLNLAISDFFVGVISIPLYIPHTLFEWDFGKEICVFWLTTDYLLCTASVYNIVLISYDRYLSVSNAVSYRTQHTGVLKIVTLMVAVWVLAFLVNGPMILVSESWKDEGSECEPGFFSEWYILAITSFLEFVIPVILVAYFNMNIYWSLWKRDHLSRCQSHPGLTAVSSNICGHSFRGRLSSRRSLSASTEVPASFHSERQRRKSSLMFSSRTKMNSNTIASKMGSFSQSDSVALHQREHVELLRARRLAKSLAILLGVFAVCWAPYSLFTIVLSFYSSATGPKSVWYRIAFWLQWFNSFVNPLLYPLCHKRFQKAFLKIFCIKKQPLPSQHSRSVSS

Molecular target: T1, human H4 receptor (Homo sapiens, UniProt Q9H3N8)
T1 construct: expressed in transfected cells; host or cells: HEK 293T cells, transient transfection with polyethyleneimine
Assay: Radioligand displacement studies at the human H4 receptor ([3H]histamine)
Assay type: binding
Settings: [3H]histamine displacement, membranes of HEK 293T cells transfected with human H4R, 1 hour at 22° C.
Method: Radioligand displacement studies at the human H4 receptor were conducted. […] Approximately 4 million cells were seeded in a 10-cm dish and cultured overnight before transfection. For transfection of each dish of cells, the transfection mixture was prepared in 1 ml serum-free DMEM and contained 5 μg of human H4R receptor plasmid and 15 μl of 1 mg/ml 25 kDa linear polyethyleneimine (Polyscience, Inc., USA). The mixture was incubated for 10-15 minutes at room temperature before it was added into the monoloyer cell culture loaded with 5 ml fresh cell culture medium. Two days after transfection the cells were washed with PBS containing 1 mM EDTA, collected as pellet by centrifuging, and stored at −20° C. until use.
For the radioligand binding study, pellets of transfected cells were homogenized in H4R binding buffer (100 mM Tris-HCl, pH 7.4). For displacement binding assays, the membranes were typically incubated with 10^−4 to 10^−11 M of ligands (stock concentration was 10 mM 1 DMSO) in the presence of [^3H]histamine (Perkin-Elmer Life Science, Inc., USA) in a total volume of 200 μl. The reaction mixtures were incubated for 1 hour at room temperature (22° C.), and harvested on 96-well glass fiber C plates that were pretreated with 0.3% 750 kDa PEI. The binding assay data were analyzed using Prism 4.0 (Graphpad Software Inc., USA).

Row | Structure (SMILES) | Ki [nM]
1 | CN1CCN(c2cnc3cc(Cl)ccc3n2)CC1 [VUF6886, 6-Chloro-2-(4-methylpiperazinyl)-quinoxaline] | < 1000
2 | COc1nc2cc(Cl)ccc2nc1N1CCN(C)CC1 [VUF10321, 7-Chloro-2-methoxy-3-(4-methylpiperazinyl)-quinoxaline] | < 1000
3 | COc1nc2cc(Cl)c(Cl)cc2nc1N1CCN(C)CC1 [VUF10352, 6,7-Dichloro-2-methoxy-3-(4-methylpiperazinyl)-quinoxaline] | < 1000
